Reference: paper doi:10.1101/2021.04.11.439363
These are yes or no findings as the source states them, for the method shown. In cells and extracts the contact can be indirect. Some binding calls cover weakened binding; strength is not graded here. For part of these data: Tags and fused reporters may be left off the sequences shown.

Protein sequences, listed by entry. Tags and fused reporters are not part of them. Lines headed by an entry give the natural chain unless they say otherwise; changes in a name come on top.
UniProt Q2NKJ3: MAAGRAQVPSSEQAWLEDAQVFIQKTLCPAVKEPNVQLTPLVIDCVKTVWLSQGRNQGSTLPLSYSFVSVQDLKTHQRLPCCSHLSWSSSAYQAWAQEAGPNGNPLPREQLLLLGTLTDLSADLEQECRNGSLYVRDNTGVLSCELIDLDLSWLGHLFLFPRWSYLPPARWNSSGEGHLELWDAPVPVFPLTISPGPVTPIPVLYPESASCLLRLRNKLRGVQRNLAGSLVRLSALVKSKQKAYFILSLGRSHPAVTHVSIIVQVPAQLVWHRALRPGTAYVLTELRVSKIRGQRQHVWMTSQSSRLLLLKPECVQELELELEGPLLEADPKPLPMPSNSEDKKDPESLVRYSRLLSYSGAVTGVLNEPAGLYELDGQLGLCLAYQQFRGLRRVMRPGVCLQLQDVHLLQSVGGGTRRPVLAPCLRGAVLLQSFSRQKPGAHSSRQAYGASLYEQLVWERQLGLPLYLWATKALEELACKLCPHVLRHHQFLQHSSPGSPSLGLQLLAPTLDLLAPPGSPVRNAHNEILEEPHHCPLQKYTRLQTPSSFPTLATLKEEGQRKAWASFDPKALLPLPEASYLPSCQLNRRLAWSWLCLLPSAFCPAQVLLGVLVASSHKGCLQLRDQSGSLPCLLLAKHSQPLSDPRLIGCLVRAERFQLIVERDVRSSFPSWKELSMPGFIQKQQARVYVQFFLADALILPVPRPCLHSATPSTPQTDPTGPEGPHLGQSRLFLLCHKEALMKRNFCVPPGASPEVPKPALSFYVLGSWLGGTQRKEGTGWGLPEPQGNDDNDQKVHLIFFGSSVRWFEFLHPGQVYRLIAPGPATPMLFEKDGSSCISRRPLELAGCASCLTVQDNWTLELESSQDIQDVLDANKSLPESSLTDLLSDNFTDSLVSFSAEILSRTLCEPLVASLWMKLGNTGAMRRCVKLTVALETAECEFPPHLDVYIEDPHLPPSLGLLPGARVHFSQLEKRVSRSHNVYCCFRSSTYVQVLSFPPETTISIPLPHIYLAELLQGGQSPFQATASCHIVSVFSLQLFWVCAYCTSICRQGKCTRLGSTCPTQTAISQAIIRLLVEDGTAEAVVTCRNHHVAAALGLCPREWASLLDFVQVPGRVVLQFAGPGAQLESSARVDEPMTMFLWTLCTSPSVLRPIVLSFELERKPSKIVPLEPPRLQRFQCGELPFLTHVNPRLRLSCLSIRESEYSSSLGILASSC
UniProt Q86WV5: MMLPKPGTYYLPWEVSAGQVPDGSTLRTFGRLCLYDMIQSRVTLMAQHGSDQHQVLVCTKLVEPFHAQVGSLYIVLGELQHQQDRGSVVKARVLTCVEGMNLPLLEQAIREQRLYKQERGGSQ
UniProt Q9UQE7: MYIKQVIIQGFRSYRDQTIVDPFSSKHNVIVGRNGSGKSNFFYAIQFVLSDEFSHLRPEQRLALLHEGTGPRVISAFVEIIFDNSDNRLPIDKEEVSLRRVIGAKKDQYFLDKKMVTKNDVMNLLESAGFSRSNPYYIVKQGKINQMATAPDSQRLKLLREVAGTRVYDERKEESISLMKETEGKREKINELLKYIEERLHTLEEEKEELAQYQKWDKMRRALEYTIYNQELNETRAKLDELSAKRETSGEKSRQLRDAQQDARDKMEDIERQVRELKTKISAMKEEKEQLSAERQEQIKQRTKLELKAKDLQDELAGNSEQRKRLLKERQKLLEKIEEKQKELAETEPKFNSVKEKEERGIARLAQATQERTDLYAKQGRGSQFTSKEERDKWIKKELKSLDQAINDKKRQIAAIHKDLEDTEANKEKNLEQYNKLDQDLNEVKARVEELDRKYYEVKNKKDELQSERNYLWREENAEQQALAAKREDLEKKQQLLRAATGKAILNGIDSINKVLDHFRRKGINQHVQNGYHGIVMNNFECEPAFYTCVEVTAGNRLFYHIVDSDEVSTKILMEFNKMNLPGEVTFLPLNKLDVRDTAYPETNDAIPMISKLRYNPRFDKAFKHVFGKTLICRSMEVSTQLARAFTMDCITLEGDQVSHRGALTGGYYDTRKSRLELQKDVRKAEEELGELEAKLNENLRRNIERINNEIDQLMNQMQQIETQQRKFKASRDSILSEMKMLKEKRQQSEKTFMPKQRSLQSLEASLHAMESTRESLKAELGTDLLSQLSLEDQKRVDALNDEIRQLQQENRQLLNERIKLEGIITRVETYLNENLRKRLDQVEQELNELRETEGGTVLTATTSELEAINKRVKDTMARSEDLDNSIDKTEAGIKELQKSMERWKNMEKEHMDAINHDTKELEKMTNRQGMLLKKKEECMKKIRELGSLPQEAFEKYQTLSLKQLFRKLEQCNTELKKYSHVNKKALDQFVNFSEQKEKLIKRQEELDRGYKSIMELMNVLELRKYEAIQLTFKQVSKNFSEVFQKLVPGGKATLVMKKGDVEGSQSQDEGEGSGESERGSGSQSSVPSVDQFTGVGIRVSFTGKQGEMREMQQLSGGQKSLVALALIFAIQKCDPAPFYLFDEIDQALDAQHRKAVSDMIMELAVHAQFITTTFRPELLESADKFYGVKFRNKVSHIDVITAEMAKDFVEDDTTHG

T1: Flag-tagged STN1, expressed alone (human) (UniProt Q9H668)
T1 sequence: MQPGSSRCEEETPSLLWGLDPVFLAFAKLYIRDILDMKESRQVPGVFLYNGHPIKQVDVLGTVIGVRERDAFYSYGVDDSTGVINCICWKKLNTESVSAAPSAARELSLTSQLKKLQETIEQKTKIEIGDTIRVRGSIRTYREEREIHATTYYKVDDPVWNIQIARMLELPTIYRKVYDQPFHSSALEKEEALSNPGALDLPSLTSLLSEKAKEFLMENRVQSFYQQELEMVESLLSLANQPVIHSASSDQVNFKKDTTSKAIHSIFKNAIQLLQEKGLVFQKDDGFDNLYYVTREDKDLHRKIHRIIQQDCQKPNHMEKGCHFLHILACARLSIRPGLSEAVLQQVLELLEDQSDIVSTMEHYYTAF


How the values were obtained:
[1] = target: T1, Flag-tagged STN1, expressed alone (human); assay: co-IP
[2] = target: CTC1-STN1-TEN1 (CST) complex, epitope-tagged, co-expressed (human) (UniProt Q2NKJ3+Q9H668+Q86WV5); assay: co-IP

Row | Molecule | binding [1] | binding [2]
1 | SMC3, endogenous in HEK 293T (from UniProt Q9UQE7 1-1217) | binds | binds
2 | SMC1A, endogenous in HEK 293T (protein, UniProt Q14683 1-1233) MGFLKLIEIENFKSYKGRQIIGPFQRFTAIIGPNGSGKSNLMDAISFVLGEKTSNLRVKTLRDLIHGAPVGKPAANRAFVSMVYSEEGAEDRTFARVIVGGSSEYKINNKVVQLHEYSEELEKLGILIKARNFLVFQGAVESIAMKNPKERTALFEEISRSGELAQEYDKRKKEMVKAEEDTQFNYHRKKNIAAERKEAKQEKEEADRYQRLKDEVVRAQVQLQLFKLYHNEVEIEKLNKELASKNKEIEKDKKRMDKVEDELKEKKKELGKMMREQQQIEKEIKEKDSELNQKRPQYIKAKENTSHKIKKLEAAKKSLQNAQKHYKKRKGDMDELEKEMLSVEKARQEFEERMEEESQSQGRDLTLEENQVKKYHRLKEEASKRAATLAQELEKFNRDQKADQDRLDLEERKKVETEAKIKQKLREIEENQKRIEKLEEYITTSKQSLEEQKKLEGELTEEVEMAKRRIDEINKELNQVMEQLGDARIDRQESSRQQRKAEIMESIKRLYPGSVYGRLIDLCQPTQKKYQIAVTKVLGKNMDAIIVDSEKTGRDCIQYIKEQRGEPETFLPLDYLEVKPTDEKLRELKGAKLVIDVIRYEPPHIKKALQYACGNALVCDNVEDARRIAFGGHQRHKTVALDGTLFQKSGVISGGASDLKAKARRWDEKAVDKLKEKKERLTEELKEQMKAKRKEAELRQVQSQAHGLQMRLKYSQSDLEQTKTRHLALNLQEKSKLESELANFGPRINDIKRIIQSREREMKDLKEKMNQVEDEVFEEFCREIGVRNIREFEEEKVKRQNEIAKKRLEFENQKTRLGIQLDFEKNQLKEDQDKVHMWEQTVKKDENEIEKLKKEEQRHMKIIDETMAQLQDLKNQHLAKKSEVNDKNHEMEEIRKKLGGANKEMTHLQKEVTAIETKLEQKRSDRHNLLQACKMQDIKLPLSKGTMDDISQEEGSSQGEDSVSGSQRISSIYAREALIEIDYGDLCEDLKDAQAEEEIKQEMNTLQQKLNEQQSVLQRIAAPNMKAMEKLESVRDKFQETSDEFEAARKRAKKAKQAFEQIKKERFDRFNACFESVATNIDEIYKALSRNSSAQAFLGPENPEEPYLDGINYNCVAPGKRFRPMDNLSGGEKTVAALALLFAIHSYKPAPFFVLDEIDAALDNTNIGKVANYIKEQSTCNFQAIVISLKEEFYTKAESLIGVYPEQGDCVISKVLTFDLTKYPDANPNPNEQ | – | binds
